Values from PubChem BioAssay AID1259308 (NCATS, 2017).

Test: 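Knock-downs that increase output of a recombinant reporter protein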 (primary screen)
System: human HEK293 embryonic kidney cells stably expressing firefly luciferase (HEK-CMV-Luc2-Hygro)
Reagents: single siRNA against human genes, 0.8 pmol siRNA per well
Timing: 72 h
Measured: 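Luciferase light (ONE-Glo) measured on one replicate plate set and viability (CellTiter-Glo) on the other, scaled to a negative control siRNA, with robust z-scores and luciferase per cell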
Reading the numbers: total luciferase, z-score and total luciferase, % of control: higher = more reporter protein produced
Hit rule: 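Active when the median/MAD z-score for overall luciferase is greater than 3; a gene was taken forward for validation with new siRNAs if at least two of its three siRNAs passed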
Meaning of the calls: active = raised luciferase; inactive = no rise
Here is one part, drawn at random, of about 59,000 deposited reagents. Over the whole deposit, about 1,510 (2.6%) got an active call. 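Calls use total luciferase alone and ignore viability, so some active siRNAs may act by altering cell number.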 The numbers tell different reagents against one gene apart. Not all columns of the deposit are shown. Reagent sequences are not shown.

CALR #1 | total luciferase, z-score = 0.0465; total luciferase, % of control = 82.8; activity call = inactive
CALR #2 | total luciferase, z-score = 1.27; total luciferase, % of control = 107; activity call = inactive
CALR #3 | total luciferase, z-score = 0.929; total luciferase, % of control = 100; activity call = inactive
LDB3 #1 | total luciferase, z-score = -0.247; total luciferase, % of control = 77; activity call = inactive
LDB3 #2 | total luciferase, z-score = -1.07; total luciferase, % of control = 60.6; activity call = inactive
LDB3 #3 | total luciferase, z-score = 0.0811; total luciferase, % of control = 83.5; activity call = inactive
DDRGK1 #1 | total luciferase, z-score = -0.273; total luciferase, % of control = 76.4; activity call = inactive
DDRGK1 #2 | total luciferase, z-score = 0.209; total luciferase, % of control = 86; activity call = inactive
DDRGK1 #3 | total luciferase, z-score = -0.981; total luciferase, % of control = 62.4; activity call = inactive
MPO #1 | total luciferase, z-score = 0.19; total luciferase, % of control = 85.7; activity call = inactive
MPO #2 | total luciferase, z-score = 0.397; total luciferase, % of control = 89.8; activity call = inactive
MPO #3 | total luciferase, z-score = 0.477; total luciferase, % of control = 91.4; activity call = inactive
SI #1 | total luciferase, z-score = 0.361; total luciferase, % of control = 89.1; activity call = inactive
SI #2 | total luciferase, z-score = 1.04; total luciferase, % of control = 102; activity call = inactive
SI #3 | total luciferase, z-score = -0.0378; total luciferase, % of control = 81.1; activity call = inactive

The list goes on (2 carried over from the part before).
SI #2 | total luciferase, z-score = 1.04; total luciferase, % of control = 102; activity call = inactive
SI #3 | total luciferase, z-score = -0.0378; total luciferase, % of control = 81.1; activity call = inactive
KLHDC4 #1 | total luciferase, z-score = 0.0648; total luciferase, % of control = 83.2; activity call = inactive
KLHDC4 #2 | total luciferase, z-score = 0.452; total luciferase, % of control = 90.9; activity call = inactive
KLHDC4 #3 | total luciferase, z-score = -2.03; total luciferase, % of control = 41.5; activity call = inactive
B3GNT3 #1 | total luciferase, z-score = 0.451; total luciferase, % of control = 90.9; activity call = inactive
B3GNT3 #2 | total luciferase, z-score = -1.03; total luciferase, % of control = 61.3; activity call = inactive
B3GNT3 #3 | total luciferase, z-score = 0.152; total luciferase, % of control = 84.9; activity call = inactive
ZNF579 #1 | total luciferase, z-score = -1.24; total luciferase, % of control = 57.3; activity call = inactive
ZNF579 #2 | total luciferase, z-score = 0.355; total luciferase, % of control = 89; activity call = inactive
ZNF579 #3 | total luciferase, z-score = -0.573; total luciferase, % of control = 70.5; activity call = inactive
SACK1D #1 | total luciferase, z-score = -0.507; total luciferase, % of control = 71.8; activity call = inactive
SACK1D #2 | total luciferase, z-score = -0.872; total luciferase, % of control = 64.5; activity call = inactive
SACK1D #3 | total luciferase, z-score = -1.26; total luciferase, % of control = 56.9; activity call = inactive
OR51T1 #1 | total luciferase, z-score = -1.18; total luciferase, % of control = 58.4; activity call = inactive
OR51T1 #2 | total luciferase, z-score = -3.12; total luciferase, % of control = 19.7; activity call = inactive
OR51T1 #3 | total luciferase, z-score = 0.967; total luciferase, % of control = 101; activity call = inactive
GNRH1 #1 | total luciferase, z-score = 0.437; total luciferase, % of control = 90.6; activity call = inactive
GNRH1 #2 | total luciferase, z-score = -1.24; total luciferase, % of control = 57.2; activity call = inactive
GNRH1 #3 | total luciferase, z-score = 0.00613; total luciferase, % of control = 82; activity call = inactive
